Some of the results follow. These are further read-outs of the screen, such as a control signal, another cell line or another target. No call is given for them. Compounds called inactive in the main read-out are mostly missing here. The note in brackets gives the kind of curve behind each potency; many fits are weak.
Test: qHTS Assay for Lipid Storage Modulators in Drosophila S3 Cells;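 as to cell number change: cells counted by Cell Tracker Red CMTPX staining in the red channel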
Conditions: BODIPY lipid droplet fluorescence, 18-24 h; for cell number change: measured here: cell count max response, cells fed with added oleic acid
How it was run: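 Drosophila S3 cells got compounds at several concentrations plus oleic acid (400 uM solution). Laser-scanning cytometry with 488 nm excitation read lipid droplets at 500-530 nm and cells at 575-640 nm. Percent activity was relative to 20 uM Triacsin C.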

[1] = measured here: lipid fluorescence (Fed channel) AC50, cells fed with added oleic acid
[2] = measured here: cell number channel AC50, cells fed with added oleic acid

| SMILES | cell number change [%] | AC50 [1] | AC50 [2] |
| --- | --- | --- | --- |
| Cc1occc1C(=O)NNC(=O)c1ccc(Br)o1 | -15.4 | 2.59 µM [falling, full curve, poor fit] |  |
| Cc1cccc(C)c1NC(=O)CNC(=O)c1ccccc1OCc1ccccc1 | 7.23 |  | 1.03 µM [rising, partial curve] |
| Nc1ccccc1C(=O)N1CCC(O)(c2ccc(Cl)cc2)CC1 | 8.77 |  |  |
| Cc1cccc(N2CCN(S(=O)(=O)c3c(C)[nH]c(=O)[nH]c3=O)CC2)c1C | -4.99 |  |  |
| COCCn1c(C)cc(C(=O)CSc2nc3ccccc3s2)c1C | 1.38 | 0.411 µM [rising, partial curve] | 0.259 µM [rising, partial curve] |
| COc1ccc(C(=O)c2sc3nc(C)cc(-c4cccs4)c3c2N)cc1 | -1.75 | 20.6 µM [rising, single point] |  |
| O=C(CCc1nc2ccccc2c(=O)[nH]1)Nc1cc(Cl)ccc1N1CCCCC1 | 4.38 | 0.103 µM [rising, full curve, poor fit] | 6.51 µM [rising, partial curve] |
| Cc1cc(C)c(OCC(=O)Nc2cccc(O)c2)cc1C | -17.5 |  |  |
| CCCCC/C=C/C1=CC(=O)C[C@H](c2ccc3c(c2)OCO3)C1 | -15.8 | 16.4 µM [falling, single point] | 1.16 µM [falling, single point] |
| COCCCN1C(=O)/C(=C\c2cccs2)C(C(=O)OC)=C1C | 10.8 |  |  |
| O=C1CN(C(=O)c2ccccc2)C(c2ccc(F)cc2)c2cc(Br)ccc2N1 (stereo not given) | -17.7 | 6.51 µM [falling, single point] |  |
| COc1ccc(C(=O)NCCc2c[nH]c3ccccc23)cc1 | -16.5 | 29.1 µM [rising, single point] |  |
| CCOC(=O)N1CCC(n2c(SCC(=O)c3ccccc3)nc3ccsc3c2=O)CC1 | -2.3 | 5.8 µM [rising, partial curve, poor fit] | 0.184 µM [rising, full curve, poor fit] |
| Cc1cc(Cl)c(S(=O)(=O)N2CCCC2)cc1OCC(=O)NC1CCCCC1 |  |  | 6.51 µM [rising, single point] |
| CC(=O)OC(C(=O)NC1CCCCC1)c1ccc(Cl)c(Cl)c1 (stereo not given) | 0.332 | 0.731 µM [falling, single point] |  |
| COc1ccc(N2CCN(C(=O)CCN3C(=O)C4C5C=CC(C5)C4C3=O)CC2)cc1 (stereo not given) | -23 | 29.1 µM [falling, single point] |  |
| COc1ccc(/C=N/n2cnc3c([nH]c4ccc(F)cc43)c2=O)cc1CSc1ccccn1 | 32.1 | 29.1 µM [rising, partial curve, poor fit] | 0.461 µM [rising, full curve, poor fit] |
| Cc1ccc(-c2cnco2)cc1 | 13.5 | 6.51 µM [falling, single point] |  |
| O=S(=O)(c1ccc(F)cc1)c1nc(-c2ccccc2F)oc1N1CCCCC1 | -13 | 1.16 µM [rising, partial curve] |  |
| CC12COC3(C(=O)Nc4ccccc4)CC1CCC32C (stereo not given) | -7.76 | 3.66 µM [falling, single point] |  |

Some of the entries so far, as tab-separated lines:
SMILES	cell number change [%]	AC50 [1]	AC50 [2]
Cc1cc(C)c(OCC(=O)Nc2cccc(O)c2)cc1C	-17.5		
CCCCC/C=C/C1=CC(=O)C[C@H](c2ccc3c(c2)OCO3)C1	-15.8	16.4 µM [falling, single point]	1.16 µM [falling, single point]
COCCCN1C(=O)/C(=C\c2cccs2)C(C(=O)OC)=C1C	10.8		
O=C1CN(C(=O)c2ccccc2)C(c2ccc(F)cc2)c2cc(Br)ccc2N1 (stereo not given)	-17.7	6.51 µM [falling, single point]	

The listing continues:

| SMILES | cell number change [%] | AC50 [1] | AC50 [2] |
| --- | --- | --- | --- |
| O=C(C1=CC=CN2CCS(=O)(=O)N=C12)N1CCN(c2cccc(Cl)c2)CC1 | -11.6 | 0.116 µM [falling, full curve, poor fit] |  |
| O=C(O)CCN=C1CCc2ccccc2N1 | -44.7 | 14.6 µM [falling, partial curve] | 18.4 µM [falling, partial curve, poor fit] |
| Cc1oncc1C(=O)Nc1cccc2ccccc12 | -3.87 | 20.6 µM [rising, single point] |  |
| CCOc1ccc(-c2nn[nH]n2)cc1OCC | 5.02 |  | 1.84 µM [rising, partial curve] |
| O=C(C1CCCO1)N1CCN(C(=S)Nc2ccc(Cl)cc2)CC1 (stereo not given) | 18.5 |  | 6.51 µM [falling, single point] |
| COc1ccc(CCNC(=O)C(C)n2nc(C)n3c(cc4occc43)c2=O)cc1OC (stereo not given) | 11.8 | 18.4 µM [rising, single point] |  |
| NC(=O)COC(=O)Cc1coc2cc3c(cc12)CCC3 | 17.2 |  |  |
| COc1ccc(NC(=O)CN(C)C(=O)c2cc3c(s2)CCCCC3)cc1 | 13 | 32.6 µM [rising, partial curve] |  |
| NS(=O)(=O)c1ccc(CNS(=O)(=O)c2ccc3ccccc3c2)cc1 | 70.1 |  | 29.1 µM [rising, single point] |
| CC(=O)Nc1ccc(S(=O)(=O)N(C)CC(=O)Nc2ccccc2N2CCOCC2)cc1 | 21.5 | 4.11 µM [rising, full curve, poor fit] |  |
| CCOc1cc(NC(=O)c2ccccc2OC)c(OCC)cc1NC(=O)c1ccccc1 | -7.09 | 6.51 µM [falling, single point] |  |
| CC(OC(=O)c1ccc(NC(=O)CC#N)cc1)C(=O)NC(=O)NC1CCCCC1 (stereo not given) |  | 29.1 µM [falling, single point] |  |
| COc1ccc(Cc2nnc(NC(=O)c3c(-c4ccccc4)noc3C)s2)cc1 | 6.03 |  |  |
| Cc1nc2cc(Nc3ccncc3)ccc2s1 | -21.4 |  |  |
| O=C(CSc1ncnc2ccccc12)c1ccco1 | 42.6 | 18.4 µM [rising, partial curve] | 16.4 µM [rising, partial curve] |
| Cc1cc(C)n(-c2nc3c(c(=O)[nH]c(=O)n3C)n2CC(O)COc2ccccc2C)n1 (stereo not given) | -59.2 | 0.13 µM [falling, full curve, poor fit] | 29.1 µM [falling, single point] |
| CNC(=O)NC(=O)CSc1nc2cc(C(=O)OC)ccc2c(=O)n1-c1ccccc1 | -37.6 | 0.00651 µM [falling, full curve, poor fit] | 32.6 µM [falling, single point] |
| COC(=O)c1cccc(NS(=O)(=O)c2ccc(OC)c(C(=O)N3CCOCC3)c2)c1C | -2.5 |  |  |
| O=C(CSc1nnc2scc(-c3ccccc3)n12)c1ccc2c(c1)OCCO2 | 13.4 | 0.116 µM [rising, full curve, poor fit] |  |
| COc1ccc(OC)c(/C=C/C(=O)N2CCN(S(=O)(=O)c3ccc(C)cc3C)CC2)c1 | -4.14 | 6.51 µM [falling, partial curve, poor fit] |  |

Only cell number change [%] and AC50 [2], for some of the entries so far:
SMILES | cell number change [%] | AC50 [2]
O=C(C1CCCO1)N1CCN(C(=S)Nc2ccc(Cl)cc2)CC1 (stereo not given) | 18.5 | 6.51 µM [falling, single point]
O=C(CSc1nnc2scc(-c3ccccc3)n12)c1ccc2c(c1)OCCO2 | 13.4 | 

The results go on:

| SMILES | cell number change [%] | AC50 [1] | AC50 [2] |
| --- | --- | --- | --- |
| COc1ccc(N(CC(=O)Nc2cccc(SC)c2)S(C)(=O)=O)cc1 |  | 0.116 µM [falling, full curve] |  |
| Cc1ccc(NC(=O)N2CCC(NC(=O)c3ccccc3C)CC2)cc1 | 31 | 10.3 µM [rising, partial curve] | 0.517 µM [rising, full curve, poor fit] |
| CCCCOc1cccc(NC(=O)CSc2nncn2C)c1 | 7.71 | 5.8 µM [rising, full curve, poor fit] |  |
| O=C(c1ccco1)N1CCN(C(=O)c2cc3c(=O)oc4ccccc4c3s2)CC1 | 6.31 | 0.82 µM [falling, single point] |  |
| COc1cccc(CN2CCN(C3CCN(c4cccc(C)c4C)CC3)CC2CCO)c1 (stereo not given) | -18.8 | 3.26 µM [falling, full curve, poor fit] |  |
| COc1ccc(N2CC(C(=O)Nc3nnc(SCC(=O)NC4CCCC4)s3)CC2=O)cc1 (stereo not given) | 6.07 |  |  |
| O=c1[nH]cnc2onc(-c3ccc(F)cc3)c12 | -12.6 | 0.517 µM [falling, full curve, poor fit] |  |
| COc1cccc2sc(N(CCCN(C)C)C(=O)c3ccc(S(=O)(=O)N4CCCc5ccccc54)cc3)nc12 | -25.9 | 1.64 µM [falling, partial curve] |  |
| Cc1nn(Cc2ccccc2)c(C)c1NC(=O)c1cc(-c2ccc3c(c2)OCO3)on1 |  | 0.0731 µM [rising, full curve] |  |
| O=C(CSc1nc2ccccc2[nH]1)c1ccc2c(c1)OCO2 |  | 6.51 µM [rising, single point] | 6.51 µM [rising, single point] |
| CCCCOc1ccc(C2NC(=O)NC(C)=C2C(C)=O)cc1OCC (stereo not given) | -44.9 |  |  |
| CC(C)(C)C(=O)NC1CC2CCCC(C1)N2C(=O)Nc1ccc(Cl)cc1 (stereo not given) | 4.56 |  | 0.0731 µM [rising, full curve, poor fit] |
| COc1ccc2oc(C(=O)OCC(=O)Nc3ccc(NC(C)=O)cc3)c(C)c2c1 | -30.8 | 0.82 µM [falling, full curve, poor fit] | 2.06 µM [falling, full curve] |
| CCOc1ncccc1C(=O)Nc1ccc(S(=O)(=O)Nc2nc(C)cc(C)n2)cc1 | 35.6 | 14.6 µM [rising, partial curve, poor fit] | 6.51 µM [rising, partial curve] |
| CCOC(=O)c1cc(-c2ccccc2)nn1-c1ccccn1 | 5.65 |  | 3.66 µM [rising, single point] |
| CN(C(=O)c1ccc(NC(=O)Cc2ccc(NC(=O)C3CCN(C(=O)C4CCC4)CC3)cc2)cc1)C1CC1 | -8.18 | 29.1 µM [falling, single point] |  |
| O=C(Nc1nc(-c2ccccc2)cs1)c1ccc(=O)[nH]c1 | 12.9 |  |  |
| CN(C)S(=O)(=O)c1cccc(C(=O)NCCCn2ccnc2)c1 | 56 | 1.03 µM [rising, partial curve] | 0.326 µM [rising, partial curve] |
| COc1cc(NC(=O)C2CC2)c(OC)cc1NC(=O)c1ccco1 | 20.5 |  |  |
